From US20160219829A1, “ANTI-ODOR MATERIAL FOR ANIMAL LITTERS USING PHOSPHOR[…] POWDER FORM” (priority 2013, published 2016) come the findings set out here.

The data set in a line: Dosimetry of n-BTPT samples without contact with urea solution (ammonia naturally released by n-BTPT). The following applies: Table 12, no urea solution.

Regarding `CCCCNP(N)(N)=S` [n-BTPT, N-(n-butyl)thiophosphoric triamide], the “Urea/Urease dosimetry (ammonia release without urea)” value turned out to be 15 ppm (final pure n-BTPT equivalent 0.023%), 12 ppm (final pure n-BTPT equivalent 0.035%) and 20 ppm (final pure n-BTPT equivalent 0.050%).
